Assay results: article PMC10465003, “The AAA-ATPase Yta4/ATAD1 interacts with the mitochondrial divisome to inhibit mitochondrial fission” (PLOS Biology, 2023)
Results are given in words; binding and its absence hold for the method and conditions named. For some of these results: In cells and extracts the contact can be indirect. Some entries that bind do so weakly or less than the wild type. Sequences can lack the tags named with a protein.

Assays:
[1] = biological target: T1, Fis1(a.a. 1–128)-GST (Schizosaccharomyces pombe) (UniProt Q9USZ8); test: co-purification after co-expression; Fis1(a.a. 1–128)-GST and His-Mdv1(a.a. 1–249) co-expressed in E. coli BL21, purified with glutathione resins in phosphate buffer (150 mM NaCl, 10 mM imidazole, 0.1% Triton X-100)
T1 sequence: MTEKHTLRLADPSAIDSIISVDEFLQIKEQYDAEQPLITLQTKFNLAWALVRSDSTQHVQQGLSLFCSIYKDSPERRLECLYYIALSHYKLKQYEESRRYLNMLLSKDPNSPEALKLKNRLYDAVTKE

[2] = biological target: T2, GFP-Mdv1 (Schizosaccharomyces pombe) (UniProt Q9P7I3); test: co-IP; S. pombe cell lysate in TBS with 0.5% Triton X-100; antibodies against GFP or Dnm1 on Dynabeads protein G, 4°C, 2 h; western blot with antibodies against Myc, GFP and Dnm1
T2 sequence: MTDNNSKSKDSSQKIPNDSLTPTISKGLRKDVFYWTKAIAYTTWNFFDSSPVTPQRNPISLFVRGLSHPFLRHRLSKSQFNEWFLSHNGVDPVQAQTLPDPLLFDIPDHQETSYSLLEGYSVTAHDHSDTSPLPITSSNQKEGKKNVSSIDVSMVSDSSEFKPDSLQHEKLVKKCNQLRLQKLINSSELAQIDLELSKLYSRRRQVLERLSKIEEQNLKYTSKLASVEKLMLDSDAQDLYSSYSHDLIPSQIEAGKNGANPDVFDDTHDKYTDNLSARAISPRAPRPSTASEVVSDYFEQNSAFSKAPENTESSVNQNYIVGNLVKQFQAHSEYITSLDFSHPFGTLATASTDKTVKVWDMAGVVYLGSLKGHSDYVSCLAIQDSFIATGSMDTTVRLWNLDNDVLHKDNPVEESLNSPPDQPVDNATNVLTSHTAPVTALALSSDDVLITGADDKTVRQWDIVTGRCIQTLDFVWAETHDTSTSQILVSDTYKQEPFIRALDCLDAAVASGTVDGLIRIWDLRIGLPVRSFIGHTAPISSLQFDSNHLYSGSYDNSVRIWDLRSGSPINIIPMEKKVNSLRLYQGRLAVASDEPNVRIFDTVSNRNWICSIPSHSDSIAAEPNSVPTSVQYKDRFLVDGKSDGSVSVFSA

[3] = biological target: T3, GFP-Fis1 (Schizosaccharomyces pombe) (UniProt Q9USZ8); test: as above
T3 sequence: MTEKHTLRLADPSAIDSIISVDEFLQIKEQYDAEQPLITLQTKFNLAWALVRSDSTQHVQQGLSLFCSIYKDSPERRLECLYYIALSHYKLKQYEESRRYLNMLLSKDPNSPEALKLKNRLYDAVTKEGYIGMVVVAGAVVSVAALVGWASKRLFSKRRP

[4] = biological target: T4, endogenous Dnm1 (Schizosaccharomyces pombe (endogenous in S. pombe cells)) (UniProt Q09748); test: as above
T4 sequence: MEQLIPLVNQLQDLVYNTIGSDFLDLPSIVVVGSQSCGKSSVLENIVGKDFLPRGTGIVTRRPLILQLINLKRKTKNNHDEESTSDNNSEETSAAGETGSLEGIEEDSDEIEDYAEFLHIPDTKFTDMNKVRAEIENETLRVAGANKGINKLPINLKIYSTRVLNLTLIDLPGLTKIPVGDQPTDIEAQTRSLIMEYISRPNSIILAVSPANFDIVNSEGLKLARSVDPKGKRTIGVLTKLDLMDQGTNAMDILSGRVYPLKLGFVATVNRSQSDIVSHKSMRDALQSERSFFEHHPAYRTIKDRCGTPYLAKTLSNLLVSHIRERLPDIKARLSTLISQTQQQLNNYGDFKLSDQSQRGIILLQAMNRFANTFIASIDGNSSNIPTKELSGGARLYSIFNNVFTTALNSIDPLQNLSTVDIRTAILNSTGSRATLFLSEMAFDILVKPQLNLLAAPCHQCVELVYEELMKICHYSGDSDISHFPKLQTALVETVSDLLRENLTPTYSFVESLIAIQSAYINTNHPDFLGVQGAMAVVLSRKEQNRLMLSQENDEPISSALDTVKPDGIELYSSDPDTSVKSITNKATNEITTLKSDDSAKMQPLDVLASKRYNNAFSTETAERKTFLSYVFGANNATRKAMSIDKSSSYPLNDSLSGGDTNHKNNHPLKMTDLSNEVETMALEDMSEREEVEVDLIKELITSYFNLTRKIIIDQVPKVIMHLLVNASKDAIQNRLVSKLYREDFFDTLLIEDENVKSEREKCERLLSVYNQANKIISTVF

B1: His-Mdv1(1–249) (domain or fragment, UniProt Q9P7I3 1-249)
chain: MTDNNSKSKDSSQKIPNDSLTPTISKGLRKDVFYWTKAIAYTTWNFFDSSPVTPQRNPISLFVRGLSHPFLRHRLSKSQFNEWFLSHNGVDPVQAQTLPDPLLFDIPDHQETSYSLLEGYSVTAHDHSDTSPLPITSSNQKEGKKNVSSIDVSMVSDSSEFKPDSLQHEKLVKKCNQLRLQKLINSSELAQIDLELSKLYSRRRQVLERLSKIEEQNLKYTSKLASVEKLMLDSDAQDLYSSYSHDLIP
For B1, the binding [1] was “binds”.

B2: endogenous Dnm1 (protein, UniProt Q09748 1-781)
chain: MEQLIPLVNQLQDLVYNTIGSDFLDLPSIVVVGSQSCGKSSVLENIVGKDFLPRGTGIVTRRPLILQLINLKRKTKNNHDEESTSDNNSEETSAAGETGSLEGIEEDSDEIEDYAEFLHIPDTKFTDMNKVRAEIENETLRVAGANKGINKLPINLKIYSTRVLNLTLIDLPGLTKIPVGDQPTDIEAQTRSLIMEYISRPNSIILAVSPANFDIVNSEGLKLARSVDPKGKRTIGVLTKLDLMDQGTNAMDILSGRVYPLKLGFVATVNRSQSDIVSHKSMRDALQSERSFFEHHPAYRTIKDRCGTPYLAKTLSNLLVSHIRERLPDIKARLSTLISQTQQQLNNYGDFKLSDQSQRGIILLQAMNRFANTFIASIDGNSSNIPTKELSGGARLYSIFNNVFTTALNSIDPLQNLSTVDIRTAILNSTGSRATLFLSEMAFDILVKPQLNLLAAPCHQCVELVYEELMKICHYSGDSDISHFPKLQTALVETVSDLLRENLTPTYSFVESLIAIQSAYINTNHPDFLGVQGAMAVVLSRKEQNRLMLSQENDEPISSALDTVKPDGIELYSSDPDTSVKSITNKATNEITTLKSDDSAKMQPLDVLASKRYNNAFSTETAERKTFLSYVFGANNATRKAMSIDKSSSYPLNDSLSGGDTNHKNNHPLKMTDLSNEVETMALEDMSEREEVEVDLIKELITSYFNLTRKIIIDQVPKVIMHLLVNASKDAIQNRLVSKLYREDFFDTLLIEDENVKSEREKCERLLSVYNQANKIISTVF
With B2 the binding [2] was “binds” and the binding [3] was “binds”.

B3: GFP-Fis1 (protein, UniProt Q9USZ8 1-160)
chain: MTEKHTLRLADPSAIDSIISVDEFLQIKEQYDAEQPLITLQTKFNLAWALVRSDSTQHVQQGLSLFCSIYKDSPERRLECLYYIALSHYKLKQYEESRRYLNMLLSKDPNSPEALKLKNRLYDAVTKEGYIGMVVVAGAVVSVAALVGWASKRLFSKRRP
B3 was tested, and the binding [4] was “binds”.
